Reference: publication PMC10729819
No constants are given. Whether binding was seen depends on the method and setting. In cells and extracts the contact can be indirect. Some binding calls cover weakened binding; strength is not graded here. Sequences can lack the tags named with a protein.

Molecular target: T1, GFP–S100A11 (S100 Ca2+-binding protein A11) (human) (UniProt P31949)
T1 sequence: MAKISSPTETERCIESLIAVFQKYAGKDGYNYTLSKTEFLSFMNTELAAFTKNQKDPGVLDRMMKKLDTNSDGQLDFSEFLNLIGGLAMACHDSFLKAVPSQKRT
Assay: co-IP; GFP-Trap beads on cleared lysates of clonal MCF-10A cells stably expressing GFP–S100A11, arrested in metaphase; mild lysis buffer (50 mM Tris-HCl pH 7.4, 150 mM NaCl, 0.5 mM EDTA, 10 mM NaF, 1 mM Na3VO4, 0.5% NP40); western blotting of the immunoprecipitates

binding: binds
B1: leucine-glycine-asparagine repeat protein LGN (protein, UniProt P81274 1-684)
chain: MEENLISMREDHSFHVRYRMEASCLELALEGERLCKSGDCRAGVSFFEAAVQVGTEDLKTLSAIYSQLGNAYFYLHDYAKALEYHHHDLTLARTIGDQLGEAKASGNLGNTLKVLGNFDEAIVCCQRHLDISRELNDKVGEARALYNLGNVYHAKGKSFGCPGPQDVGEFPEEVRDALQAAVDFYEENLSLVTALGDRAAQGRAFGNLGNTHYLLGNFRDAVIAHEQRLLIAKEFGDKAAERRAYSNLGNAYIFLGEFETASEYYKKTLLLARQLKDRAVEAQSCYSLGNTYTLLQDYEKAIDYHLKHLAIAQELNDRIGEGRACWSLGNAYTALGNHDQAMHFAEKHLEISREVGDKSGELTARLNLSDLQMVLGLSYSTNNSIMSENTEIDSSLNGVRPKLGRRHSMENMELMKLTPEKVQNWNSEILAKQKPLIAKPSAKLLFVNRLKGKKYKTNSSTKVLQDASNSIDHRIPNSQRKISADTIGDEGFFDLLSRFQSNRMDDQRCCLQEKNCHTASTTTSSTPPKMMLKTSSVPVVSPNTDEFLDLLASSQSRRLDDQRASFSNLPGLRLTQNSQSVLSHLMTNDNKEADEDFFDILVKCQGSRLDDQRCAPPPATTKGPTVPDEDFFSLILRSQGKRMDEQRVLLQRDQNRDTDFGLKDFLQNNALLEFKNSGKKSADH
